Values of other authors, collected in patent US8895597B2, “Combination of local temozolomide with local BCNU” (priority 2010, dated 2014).
At least one compound was matched to its structure with a doubt left.

System: malignant glioma / GBM
Settings: given with radiation treatment, Temodar dose of 150-200 mg/m^2 (Stupp 2005); cited from earlier work

SMILES: Cn1nnc2c(C(N)=O)ncn2c1=O [Temodar, Temozolomide]
- Extension of median survival compared to radiation alone: 2.5 months
